Reference: patent US20260116991A1
Results are given in words; binding and its absence hold for the method and conditions named. Binding calls can cover weak binding; strength is not graded here.

Target: monkey GPC3-His protein (monkey)
Assay: SPR, antibody captured on Protein A chip, monkey GPC3-His analyte

Row | binding | Binder
1 | binds | F1.42.8 (antibody, human IgG1, kappa, V domains shown) VH: HVQLQQPGAELVKPGASVKLSCKASGYTFTSYWMHWVRQRPGQGLEWIEMIHPNSGSTNYNEKFKSKATLTVDKSSSTAYMQLSSLTSEDSAVYYCARGNYNSSLYAMDYWGQGTSVTVSS VL: DIQMTQTTSSLSASLGDRVTISCSASQGISNYLNWYQQKPDGTVKLLIYYASNLHSGVPSRFSGSGSGTAYSLTISNLEPEDIATYYCQQYSILPYTFGGGTKLEIKR
2 | binds | F1.73.9 (antibody, human IgG1, kappa, V domains shown) VH: QVQLKQSGAELVRPGASVKLSCKASGYTFTDYYINWVKQRPGQGLEWIARIYPGSGNTYYNEKFKGKATLTAEKSSSTAYMQFSSLTSEDSAVYFCACSTYYTMDYWGQGTSVTVSS VL: QIVLTQSPAIMSASLGERVTMTCTASSGVSSSYLHWYQQKPGSSPKLWIYTTSNLASGVPARFSGSGSGTSYSLTISSMEAEDAATYYCHQYHRSPYTFGGGTKLEIKR
3 | binds | F2.169.2 (antibody, human IgG1, kappa, V domains shown) VH: EVQLVETGGGLVQPKGSLKLSCAASGFSFNTNAMNWVRQAPGKGLEWVARIRSKSNNYATYYADSVKDRFTISRDDSQSMLYLQMNNLKTEDTAMYYCVRDGYYVLFAYWGQGTLVTVSA VL: DVLMTQTPLSLPVSLGDQASISCRFSQSIVNSNGNTYLEWFLQKPGQSPKLLIYKVSNRFSGVPDRFSGSGSGTDFTLKISRVEAEDLGVYYCFQGSHVPFTFGTGTKLEIKR
4 | binds | F2.152.3 (antibody, human IgG1, kappa, V domains shown) VH: EVQLQQSGPELVKPGASVKMSCKASGYTFTDYYMTWVKQSHGKSLEWIGRVNPRNGDTTYNQKFEGRATLTLDKSLSTAFMQLNSLTSEDSAVYYCINSKGHFDYWGQGTTLTVSS VL: DVLMTQTPLSLPVSLGDQASISCRSSQSIVHSNGNTYLEWFLQKPGQSPKSLIYKVSNRFSGVPDRFSGSGSGTDFTLKISRVEAEDLGVYYCFQGSHVPPTFGAGTKLELKR
